# PubChem BioAssay AID1671190 (National Center for Advancing Translational Sciences (NCATS), 2021)
# Sequences of proteins named here, by UniProt entry; tags and fusion partners are left off. A change or cut given only in a name is not applied to a line headed by its entry.
# UniProt P18054: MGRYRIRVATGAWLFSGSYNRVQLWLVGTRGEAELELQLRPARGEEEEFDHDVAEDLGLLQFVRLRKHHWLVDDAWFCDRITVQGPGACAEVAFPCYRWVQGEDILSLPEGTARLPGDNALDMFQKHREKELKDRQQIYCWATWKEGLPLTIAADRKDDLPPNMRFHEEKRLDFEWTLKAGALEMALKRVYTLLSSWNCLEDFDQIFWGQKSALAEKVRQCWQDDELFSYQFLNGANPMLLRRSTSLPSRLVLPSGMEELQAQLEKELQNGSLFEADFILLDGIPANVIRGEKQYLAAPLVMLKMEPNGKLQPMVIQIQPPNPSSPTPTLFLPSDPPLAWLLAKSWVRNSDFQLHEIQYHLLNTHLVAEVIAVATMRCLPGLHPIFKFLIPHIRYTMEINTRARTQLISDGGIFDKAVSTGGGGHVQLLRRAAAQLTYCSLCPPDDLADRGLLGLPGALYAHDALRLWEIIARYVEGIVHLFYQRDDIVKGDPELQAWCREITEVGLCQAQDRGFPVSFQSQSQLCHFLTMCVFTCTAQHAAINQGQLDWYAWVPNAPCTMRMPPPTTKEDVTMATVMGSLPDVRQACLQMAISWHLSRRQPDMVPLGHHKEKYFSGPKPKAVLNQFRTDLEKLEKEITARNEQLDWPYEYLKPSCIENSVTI
# Hit rate of the full screen: of about 580,000 compounds, about 6,100 (1.1%) were called active. Inconclusive means that the source gave no clear call. Such entries were picked first, then a sample of the others. The call rests on the fitted dose curve; in most records, active means well fitted inhibition curve with a large enough effect; inconclusive means small, poorly fitted or top-dose-only effect, or another doubt; inactive means no such curve, though single readings can be large or run the other way. Potencies of inconclusive entries are doubtful fits and often do not repeat.
# Molecular target: Polyunsaturated fatty acid lipoxygenase ALOX12 (Homo sapiens) (UniProt P18054)
# Assay: Primary qHTS assay for inhibitors of human arachidonate 12S-lipoxygenase (ALOX12): Round 2
# Settings: purified 12hLO, xylenol orange hydroperoxide absorbance; activity change, negative = inhibition: at 108 µM (top of the series) unless noted
# How it was run: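 Purified human 12hLO at 150 nM in 25 mM Hepes, 0.01% Triton X-100, pH 7.0, preincubated 15 min at room temperature with compound. Reaction started with 40 uM arachidonic acid, 30 min at room temperature. Hydroperoxide measured by Fe-xylenol orange, 573/405 nm absorbance ratio.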
# On the % scale 0 is the no-effect control and ±100 the full control effect; potency means the concentration at half of the fitted maximal effect.
SMILES,Potency,"activity change, negative = inhibition"
Cc1c(NC(=O)C(CC(=O)O)NCc2ccco2)c(=O)n(-c2ccccc2)n1C (centres undefined),"inconclusive: 0.447 µM [inhibitor, full curve, poor fit]",–
CCOC(=O)C(C)Oc1cccn2c(=O)c(-c3cc(C)n(-c4cccc(F)c4)n3)c(C)nc12 (centres undefined),"inconclusive: 3.55 µM [inhibitor, full curve, poor fit]",–
COc1ccc(C)cc1Nc1n[n+](-c2ccccc2)c(-c2cc(OC)c(OC)cc2Br)s1,active: 39.8 µM,–
COc1cc(S(=O)(=O)N(Cc2cccnc2)Cc2ccco2)ccc1-n1cnnn1,"inconclusive: 3.16 µM [inhibitor, full curve, poor fit]",–
Cc1ccc(CN2CCCC(Cc3ncc(C)n3Cc3ccccc3)C2)o1 (centres undefined),inactive,–
COc1ccc(C(C)(C)C)cc1NC(=O)c1ccc(NC(=O)CC#N)cc1,"inconclusive: 5.01 µM [inhibitor, full curve, poor fit]",–
Cc1ccc(-n2ncc3c(NCCO)ncnc32)cc1Cl,"inconclusive: 100 µM [inhibitor, partial curve, poor fit]",–
COc1ccc(-c2nc3cc(NC(=O)c4ccc(Br)cc4)ccc3o2)cc1,inactive,–
COCCN1C(=O)[C@H]2C[C@@]13O[C@H](c1ccc(C(F)(F)F)cc1)N=C3C[C@H](c1ccccc1)[C@H]2C,inactive,–
O=[N+]([O-])c1ccc(Nc2cccc3ccccc23)nc1,"inconclusive: 44.7 µM [inhibitor, partial curve, poor fit]",–
O=C(O/N=C(/c1ccccc1)c1ccncc1)c1ccccc1[N+](=O)[O-],"inconclusive: 100 µM [inhibitor, single point]",–
COc1ccc(NC(=O)CN(C)CC(=O)Nc2sc3c(c2C(N)=O)CCC3)cc1,inactive,–
CCn1nc(C(=O)OCC(=O)N2CCc3ccccc32)c2ccccc2c1=O,"inconclusive: 100 µM [inhibitor, partial curve, poor fit]",–
O=c1[nH]nc2n1CCC(NS(=O)(=O)c1cccc3cccnc13)CC2 (centres undefined),inactive,–
O=C(Nc1ccc(F)cc1)c1cccc(N2C(=O)C3C4C=CC(C5CC45)C3C2=O)c1 (centres undefined),inactive,–
Oc1ccc(Nc2nc(-c3ccc(Cl)cc3)cs2)cc1,"inconclusive: 79.4 µM [inhibitor, partial curve, poor fit]",–
CCOC(=O)c1ccc(-c2ccc(/C=C/C(=O)c3ccccc3)o2)cc1,"inconclusive: 8.91 µM [inhibitor, full curve]",–
COC(=O)/C(=N/Nc1ccc(C)cc1)N1CCCc2ccccc21,"inconclusive: 44.7 µM [inhibitor, partial curve, poor fit]",–
CC(OC(=O)c1ccc(F)c(S(=O)(=O)N2CCCCC2)c1)C(=O)N1CCc2ccccc21 (centres undefined),inactive,–
CCn1c(SCc2cc(OC)c(Br)cc2OC)nc2cc(S(N)(=O)=O)ccc21,inactive,–
Cc1ccccc1NC(=O)c1ccc(F)c(S(=O)(=O)N2CCN(c3ccccc3F)CC2)c1,–,inconclusive: -31.7% [inhibitor]
O=C(CS(=O)(=O)Cc1ccccc1)Nc1cc(F)cc(F)c1,"inconclusive: 0.794 µM [inhibitor, full curve, poor fit]",–

SMILES,Potency,"activity change, negative = inhibition"
COc1ccccc1N(C)c1cc2c(c3c1ccn3C)C1CCC2C1 (centres undefined),active: 39.8 µM,–
O=C(CCCN1C(=O)c2cccc3cccc(c23)C1=O)NC1CCS(=O)(=O)C1 (centres undefined),"inconclusive: 56.2 µM [inhibitor, partial curve, poor fit]",–
CC(O)CSc1nc2c(c(=O)[nH]c(=O)n2C)n1CC(O)COc1ccccc1 (centres undefined),"inconclusive: 56.2 µM [inhibitor, partial curve, poor fit]",–
Cc1ccc(Cl)cc1NC(=O)COC(=O)CC(C)(C)CC1=NS(=O)(=O)c2ccccc2N1,inactive,–
COc1ccc(CNC(=O)Cn2c(=O)c(-c3noc(C)n3)c3n(c2=O)CCCC3)cc1,"inconclusive: 14.1 µM [inhibitor, partial curve, poor fit]",–
N#CC1=CC2CN(Cc3ccccc3)C1C1C(=O)N(c3ccccc3)C(=O)C21 (centres undefined),"inconclusive: 50.1 µM [inhibitor, partial curve, poor fit]",–
Cc1ccc(-n2cccc2C(=S)N=P(N(C)C)(N(C)C)N(C)C)cc1,"inconclusive: 44.7 µM [inhibitor, partial curve, poor fit]",–
C[C@H]1[C@@H]2[C@H]3OC(=O)[C@@H](C)[C@@H]3CC[C@@]2(C)CC[C@@H]1NC(=O)CC(C)(C)C,inactive,–
CC(C)(C)C(=O)O/N=C(\N)c1c(Cl)cccc1Cl,"inconclusive: 100 µM [inhibitor, single point]",–
Cc1nc(-c2ccncc2)[nH]c(=O)c1CC(=O)N(C)C1CCCCCCC1,inactive,–
Cn1cccc1CN1CCC2(CC1)CC(=O)Nc1ccccc1O2,"inconclusive: 31.6 µM [inhibitor, full curve, poor fit]",–
COCc1cc(CC2(NCc3ccc(OC)cc3)COC2)no1,inactive,–
Cc1ccnc(NC(=S)N2CCN(c3cccc(C(F)(F)F)c3)CC2)c1,active: 22.4 µM,–
COc1cc(NC(=O)CN2C(=O)c3ccccc3Sc3ccc(C(=O)N4CCCC4)cc32)cc(OC)c1,inactive,–
CCCc1noc(-c2cccn3c(CNC(=O)c4ccc(F)cc4Cl)nnc23)n1,inactive,–
CNC(=O)C1CC(=O)N(CCc2ccccc2)C(=Nc2ccc(OC)cc2)S1 (centres undefined),"inconclusive: 56.2 µM [inhibitor, partial curve, poor fit]",–
CSc1ccccc1C(=O)Nc1ccccc1C(=O)NC(C)C,"inconclusive: 15.8 µM [inhibitor, partial curve, poor fit]",–
COc1ccc(OC)c(-n2c(=S)[nH]c3cc(C(=O)N4CCC(C(N)=O)CC4)ccc3c2=O)c1,"inconclusive: 35.5 µM [inhibitor, partial curve, poor fit]",–
CN(C)CCNC(=O)c1cc2cn(C3CC3)cc2s1,inactive,–
COc1ccccc1N1CCN(/N=C/c2ccc(O)c(O)c2)CC1,"inconclusive: 0.708 µM [inhibitor, full curve, poor fit]",–
CCCCn1c(N)c(N(CC(C)C)C(=O)CC(NC(=O)c2ccccc2)c2ccccc2)c(=O)[nH]c1=O (centres undefined),"inconclusive: 44.7 µM [inhibitor, partial curve, poor fit]",–
Cc1ccc(C(=O)N2CCC3CC2c2cc(-c4ccc5c(c4)OCO5)ccc23)cc1 (centres undefined),"inconclusive: 89.1 µM [inhibitor, partial curve, poor fit]",–

SMILES,Potency,"activity change, negative = inhibition"
Cc1ccc(/C=C2/NC(=O)N(Cc3ccccc3F)C2=O)o1,"inconclusive: 56.2 µM [inhibitor, partial curve, poor fit]",–
Fc1ccc(NC(=S)N(Cc2ccccc2)Cc2ccccc2)cc1,"inconclusive: 56.2 µM [inhibitor, partial curve, poor fit]",–
Cc1ccc(/C=N/n2c(-c3ccncc3)n[nH]c2=S)cc1,"inconclusive: 50.1 µM [inhibitor, partial curve, poor fit]",–
CCn1c(CC(=O)Nc2cccc(Cl)c2Cl)nnc1SCCOc1ccc(OC)cc1,"inconclusive: 4.47 µM [inhibitor, full curve, poor fit]",–
Cc1ccccc1-c1cccc(CCOc2cnc3c(ccn3CC(=O)O)c2)c1,"inconclusive: 44.7 µM [inhibitor, full curve, poor fit]",–
O=C1C2C3C=CC(C4CC34)C2C(=O)N1/N=C/c1ccc(-c2ccc(F)cc2[N+](=O)[O-])o1 (centres undefined),inactive,–
COC(=O)C1=C(C)N(Cc2cccc(C(F)(F)F)c2)C(=NCC2CC2)NC1c1cccc(C(F)(F)F)c1 (centres undefined),"inconclusive: 79.4 µM [inhibitor, partial curve, poor fit]",–
CCN1C(=O)CC(CC(=O)N2CCC(c3nc4ccc(F)cc4[nH]3)CC2)(c2ccccc2C)C1=O (centres undefined),"inconclusive: 112 µM [inhibitor, single point]",–
COc1ccc(CCNC(=S)NC(=O)c2ccc(Br)cc2)cc1OC,active: 28.2 µM,–
COc1cccc2cc(-c3csc(Nc4ccc(O)cc4)n3)c(=O)oc12,"inconclusive: 35.5 µM [inhibitor, partial curve]",–
Cc1ccn2cc(-c3c(-c4ccccc4Cl)n(C)c(=O)n(C)c3=O)nc2c1,inactive,–
CS(=O)(=O)c1ccc(OCC2(CNS(=O)(=O)c3ccc(F)cc3)C[C@@H](O)[C@@H](O)C2)cc1 (some centres undefined),"inconclusive: 50.1 µM [inhibitor, partial curve, poor fit]",–
COc1cccc(C2CC(=O)Nc3nc(N)sc32)c1OCc1ccccc1 (centres undefined),active: 7.94 µM,–
CCC(C)c1ccccc1NC(=O)c1cc2cccc([N+](=O)[O-])c2[nH]1 (centres undefined),"inconclusive: 100 µM [inhibitor, partial curve, poor fit]",–
Cn1c(=O)[nH]c(=O)c2c1nc(Br)n2C/C=N/NC(N)=S,"inconclusive: 1 µM [inhibitor, full curve, poor fit]",–
COc1ccc(C(=O)C(C)OC(=O)C23CC4CC(CC(Cl)(C4)C2)C3)c(OC)c1 (centres undefined),inactive,–
COc1ccc(-c2cc(C3CC3)nc(N)c2C#N)cc1,"inconclusive: 2.24 µM [inhibitor, full curve, poor fit]",–
Cc1ccc(-c2csc3nc[nH]c(=S)c23)cc1C,active: 28.2 µM,–
CCCn1c(=O)c2ccccc2n2c(SCCNCCO)nnc12,"inconclusive: 0.562 µM [inhibitor, partial curve, poor fit]",–
CC1(C)Cc2c(C#N)c(OCC(=O)c3ccc(Cl)cc3)nc(-c3ccoc3)c2CO1,"inconclusive: 100 µM [inhibitor, single point]",–

# Some of the entries so far, with bars between the fields:
SMILES | Potency | activity change, negative = inhibition
COC(=O)C1=C(C)N(Cc2cccc(C(F)(F)F)c2)C(=NCC2CC2)NC1c1cccc(C(F)(F)F)c1 (centres undefined) | inconclusive: 79.4 µM [inhibitor, partial curve, poor fit] | –
CCN1C(=O)CC(CC(=O)N2CCC(c3nc4ccc(F)cc4[nH]3)CC2)(c2ccccc2C)C1=O (centres undefined) | inconclusive: 112 µM [inhibitor, single point] | –
COc1ccc(CCNC(=S)NC(=O)c2ccc(Br)cc2)cc1OC | active: 28.2 µM | –
COc1cccc2cc(-c3csc(Nc4ccc(O)cc4)n3)c(=O)oc12 | inconclusive: 35.5 µM [inhibitor, partial curve] | –
Cc1ccn2cc(-c3c(-c4ccccc4Cl)n(C)c(=O)n(C)c3=O)nc2c1 | inactive | –
CS(=O)(=O)c1ccc(OCC2(CNS(=O)(=O)c3ccc(F)cc3)C[C@@H](O)[C@@H](O)C2)cc1 (some centres undefined) | inconclusive: 50.1 µM [inhibitor, partial curve, poor fit] | –
COc1cccc(C2CC(=O)Nc3nc(N)sc32)c1OCc1ccccc1 (centres undefined) | active: 7.94 µM | –
CCC(C)c1ccccc1NC(=O)c1cc2cccc([N+](=O)[O-])c2[nH]1 (centres undefined) | inconclusive: 100 µM [inhibitor, partial curve, poor fit] | –
Cn1c(=O)[nH]c(=O)c2c1nc(Br)n2C/C=N/NC(N)=S | inconclusive: 1 µM [inhibitor, full curve, poor fit] | –
COc1ccc(C(=O)C(C)OC(=O)C23CC4CC(CC(Cl)(C4)C2)C3)c(OC)c1 (centres undefined) | inactive | –
COc1ccc(-c2cc(C3CC3)nc(N)c2C#N)cc1 | inconclusive: 2.24 µM [inhibitor, full curve, poor fit] | –
Cc1ccc(-c2csc3nc[nH]c(=S)c23)cc1C | active: 28.2 µM | –
CCCn1c(=O)c2ccccc2n2c(SCCNCCO)nnc12 | inconclusive: 0.562 µM [inhibitor, partial curve, poor fit] | –
CC1(C)Cc2c(C#N)c(OCC(=O)c3ccc(Cl)cc3)nc(-c3ccoc3)c2CO1 | inconclusive: 100 µM [inhibitor, single point] | –
